Measured values: patent publication US9434687B2, “Detection of synthetic cannabinoids” (priority 2011, dated 2016)
Where two headings read alike, the source gives them in different places.

Key:
Assay type in all cases: binding, sheep
[1] = tested on: IgG fraction of antiserum raised to Immunogen VII
Description: (§1) An aqueous solution of each immunogen was formulated with Freund's Complete Adjuvant (FCA) to form an emulsion consisting of 2 mg/ml*immunogen in 50% (v/v) FCA. Three sheep were immunised with this emulsion (1° immunisation), 0.25 ml being intramuscularly injected at each of four sites in the flank of each animal. Subsequent immunizations (boosts) contained 1 mg/ml*immunogen. All boosts were emulsified in 50% (v/v) Freund's Incomplete Adjuvant (FIA) and were administered in the same manner as the 1° immunisation, at monthly intervals. Blood sampling took place 7 to 14 days after each boost. *The general procedure for immunogen administration is outlined above, however, it was necessary to deviate from this protocol in some cases, due to reduced immunogen concentrations (Immunogens II, IV, VII and VIII) and/or amount available (Immunogen VIII). Any deviations from the protocol described are outlined in Table 5 below and highlighted in bold.
(§2) The wells of an enhanced binding 96 well polystyrene microtiter plate were coated with IgG fraction of antiserum raised to Immunogen I or II, diluted in 10 mM Tris, pH8.5 (125 μl/well). The appropriate antibody coating dilution was determined using standard ELISA checkerboard techniques. The plate was incubated overnight at 4° C., washed 4 times over 10 minutes with Tris buffered saline containing Tween 20 (TBST) and tapped dry. Standard solutions (JWH-018 for Immunogens I and II) were applied at 0, 0.625, 1.25, 2.5, 5, 10, 20 and 40 ng/ml and 50 μl of each was added to the appropriate wells. 75 μl of conjugate (appropriate hapten-HRP) diluted in Tris buffer (pH 7.2) containing EDTA, D-mannitol, sucrose, thimerosal and BSA, was added to each of the wells. The appropriate dilution of conjugate was also determined using standard ELISA checkerboard techniques. The plate was incubated at 25° C. for 1 hour. Excess unbound conjugate was removed by washing 6 times over a 10 minute period with TBST. 125 μl of tetramethylbenzidine (TMB) substrate solution was added to each well of the plate that was then incubated for 20 minutes in the dark at room temperature. The reaction was terminated by addition of 125 μl 0.2M H2SO4 to each well. The absorbance was then measured at 450 nm using a microtiter plate reader. The data are inputted to a computer program called ‘KC Junior’. It is a 4 parameter fit curve and allow the calculation of concentrations between the standard runs. This program is used to calculate the IC50s by dividing the 0 ng/ml OD value by 2 and obtaining the concentration value from the curve for this OD.
(§3) In a similar manner to that described above, the wells of a 96-well microtiter plate were coated with the IgG fraction of the antiserum raised to Immunogens IV, VII or VIII. Standard solutions (JWH-018 for Immunogens IV and VIII, JWH-015 for Immunogen VII) were prepared in TBST at 0, 1.25, 2.5, 5, 10, 20, 40 and 80 ng/ml and conjugate was employed as detection reagent.
(§4) The data set out in Tables 7-10 are generated using antibodies raised against the indicated Immunogens in a competitive binding assay with the indicated tracers, using the indicated standards
(§5) In order to determine the specificity of the competitive ELISAs, standard solutions of a range of structurally similar synthetic cannabinoids and their metabolites were prepared in TBST.
(§6) Using the calibration curves generated and employing a single level of cross reactants, these were used to determine the cross-reactivity of each immunoassay with these substances. These are the standards used for the IC50 and cross-reactivity data generation: […]

[2] = tested on: IgG fraction of antiserum raised to Immunogen IV
Description: as §1, §2, §3, §4, §5, §6

[3] = tested on: IgG fraction of antiserum raised to Immunogen VIII
Description: as §1, §2, §3, §4, §5, §6

[4] = tested on: IgG fraction of antiserum raised to Immunogen I
Description: as §1, §2
In a similar manner to that described above, the wells of a 96-well microtiter plate were coated with the IgG fraction of the antiserum raised to Immunogens I or II. Standard solutions (JWH-018 for Immunogen I and II) were applied at 0, 0.625, 1.25, 2.5, 5, 10, 20 and 40 ng/ml and conjugate was employed as detection reagent.
as §4, §5, §6

[5] = tested on: IgG fraction of antiserum raised to Immunogen II; assay: Competitive ELISA, antibody RS1833B12 to Immunogen II, tracer ESC4555 (Example 36)
Description: as §1
as §2, with “The” for “The wells of an enhanced binding 96 well polystyrene microtiter plate were coated with IgG fraction of antiserum raised to Immunogen I or II, diluted in 10 mM Tris, pH8.5 (125 μl/well). The”, “Standard solutions (JWH-018 for Immunogens I and II) were applied at 0, 0.625, 1.25, 2.5, 5, 10, 20 and 40 ng/ml and 50 μl of each was added to the appropriate wells.” left out, “runs.” for “runs. This program is used to calculate the IC50s by dividing the 0 ng/ml OD value by 2 and obtaining the concentration value from the curve for this OD.”
In a similar manner to that described above, the wells of a 96-well microtiter plate were coated with the IgG fraction of the antiserum raised to Immunogens I or II.
as §4, §6

**Q.** With `CCCn1c(C)c(C(=O)c2cccc3ccccc23)c2ccccc21` [JWH-015] as the molecule, how does the A450 ([1]; JWH-015 1.25 ng/ml) read?
**A.** Its A450 is 1.53.

**Q.** And the A450 ([1]; JWH-015 2.5 ng/ml)?
**A.** The A450 was 1.2605.

**Q.** What about the A450 ([1]; JWH-015 5 ng/ml) of the same molecule?
**A.** The A450 was 1.0875.

**Q.** What about the A450 ([1]; JWH-015 10 ng/ml) of the same molecule?
**A.** The A450 was 0.869.

**Q.** And the A450 ([1]; JWH-015 20 ng/ml)?
**A.** Its A450 is 0.69.

**Q.** And the A450 ([1]; JWH-015 40 ng/ml)?
**A.** The A450 was 0.5345.

**Q.** And the A450 ([1]; JWH-015 80 ng/ml)?
**A.** The A450 was 0.407.

**Q.** What does the source list for `CCCCCn1cc(C(=O)c2cccc3ccccc23)c2ccccc21` [JWH-018]?
**A.** A450 ([2]; JWH-018 1.25 ng/ml): 1.479; A450 ([2]; JWH-018 2.5 ng/ml): 1.1625; A450 ([2]; JWH-018 5 ng/ml): 0.7155; A450 ([2]; JWH-018 10 ng/ml): 0.442; A450 ([2]; JWH-018 20 ng/ml): 0.2645; A450 ([2]; JWH-018 40 ng/ml): 0.1735; A450 ([2]; JWH-018 80 ng/ml): 0.116; A450 ([3]; JWH-018 1 ng/ml): 1.09; A450 ([3]; JWH-018 3 ng/ml): 0.8765; A450 ([3]; JWH-018 5 ng/ml): 0.708; A450 ([3]; JWH-018 10 ng/ml): 0.5515; A450 ([3]; JWH-018 20 ng/ml): 0.4015; A450 ([3]; JWH-018 40 ng/ml): 0.3095; A450 ([3]; JWH-018 80 ng/ml): 0.217; A450 ([4]; JWH-018 0.625 ng/ml): 1.247; A450 ([4]; JWH-018 1.25 ng/ml): 1.004; A450 ([4]; JWH-018 2.5 ng/ml): 0.707; A450 ([4]; JWH-018 5 ng/ml): 0.504; A450 ([4]; JWH-018 10 ng/ml): 0.323; A450 ([4]; JWH-018 20 ng/ml): 0.22; A450 ([4]; JWH-018 40 ng/ml): 0.15; A450 ([5]; JWH-018 0.625 ng/ml): 0.984; A450 ([5]; JWH-018 1.25 ng/ml): 0.7685; A450 ([5]; JWH-018 2.5 ng/ml): 0.499; A450 ([5]; JWH-018 5 ng/ml): 0.3615; A450 ([5]; JWH-018 10 ng/ml): 0.2525; A450 ([5]; JWH-018 20 ng/ml): 0.1855; A450 ([5]; JWH-018 40 ng/ml): 0.149
